The nature of the series: general procedure: Fmoc solid-phase peptide synthesis; 2-Cl-trityl resin (Iris Biotech GmbH); HBTU/HOBt/DIPEA. The note with it: for final HPLC purity: UV detection at 220 nm.

The values below come from paper PMC5835976 (EJNMMI Radiopharmacy and Chemistry, 2017).

Some peptides are written in HELM: one residue between dots, names in brackets for other building blocks, links after the first $.

On to PEPTIDE1{D.A.H.S.F.S}$$$$V2.0, for which, where the note is “whole synthesis”, the isolated yield came out at 29% and the “final HPLC purity” value was found to be 98%.

In the case of PEPTIDE1{L.I.K.K.P.F}$$$$V2.0, for the setting “whole synthesis”, the isolated yield is reported as 32% and the “final HPLC purity” value is listed as 97%.

For PEPTIDE1{P.G.D.L.S.R}$$$$V2.0, under “whole synthesis”, the isolated yield worked out at 31% and the “final HPLC purity” value was 98%.

“PEPTIDE1{[NODAGA].[bAla].P.G.D.L.S.R}$$$$V2.0”: the “final HPLC purity” value (conjugation step) was >95%. Further, the isolated yield (whole synthesis) amounted to 28%.
